Results are given in words; binding and its absence hold for the method and conditions named. Binding seen in cells or lysates may run through a third protein. Binding can be weak; no strength is given.
How the values were obtained:
HA-tagged WT SLC44A2 = HA-tagged WT SLC44A2 (UniProt Q8IWA5); experiment: co-IP; HEK293 cells cotransfected with HA-SLC44A2 and His-NRP1 constructs; IP anti-HA, blot anti-His (Figure 6A); IP anti-His, blot anti-HA (Figure 6B)
GST-tagged SLC44A2 = GST-tagged SLC44A2 (UniProt Q8IWA5); experiment: pull-down; GST pull-down with GST-tagged SLC44A2 and lysates from HASMCs and MASMCs; only the target purified

Sequences of proteins named here, by UniProt entry; tags and fusion partners are left off. A change or cut given only in a name is not applied to a line headed by its entry. Residues count along the entry.
UniProt Q8IWA5: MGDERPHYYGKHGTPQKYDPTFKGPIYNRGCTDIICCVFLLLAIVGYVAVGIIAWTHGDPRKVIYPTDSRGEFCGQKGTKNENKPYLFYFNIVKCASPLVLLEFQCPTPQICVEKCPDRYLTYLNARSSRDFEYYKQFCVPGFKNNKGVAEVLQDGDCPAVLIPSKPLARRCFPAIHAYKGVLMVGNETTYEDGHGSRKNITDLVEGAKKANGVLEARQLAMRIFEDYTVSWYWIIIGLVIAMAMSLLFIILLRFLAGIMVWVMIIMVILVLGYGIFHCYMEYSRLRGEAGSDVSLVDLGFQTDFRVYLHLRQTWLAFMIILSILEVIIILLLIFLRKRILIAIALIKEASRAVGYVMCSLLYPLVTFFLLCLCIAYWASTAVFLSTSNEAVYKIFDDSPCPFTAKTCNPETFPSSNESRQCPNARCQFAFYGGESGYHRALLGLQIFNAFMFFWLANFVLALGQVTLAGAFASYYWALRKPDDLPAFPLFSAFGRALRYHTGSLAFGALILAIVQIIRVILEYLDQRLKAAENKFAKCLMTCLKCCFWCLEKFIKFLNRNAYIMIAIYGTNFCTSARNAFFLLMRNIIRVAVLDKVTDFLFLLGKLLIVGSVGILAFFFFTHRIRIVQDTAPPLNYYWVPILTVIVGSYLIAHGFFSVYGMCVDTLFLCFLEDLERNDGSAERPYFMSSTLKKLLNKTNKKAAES
UniProt O14786, residues 22-923: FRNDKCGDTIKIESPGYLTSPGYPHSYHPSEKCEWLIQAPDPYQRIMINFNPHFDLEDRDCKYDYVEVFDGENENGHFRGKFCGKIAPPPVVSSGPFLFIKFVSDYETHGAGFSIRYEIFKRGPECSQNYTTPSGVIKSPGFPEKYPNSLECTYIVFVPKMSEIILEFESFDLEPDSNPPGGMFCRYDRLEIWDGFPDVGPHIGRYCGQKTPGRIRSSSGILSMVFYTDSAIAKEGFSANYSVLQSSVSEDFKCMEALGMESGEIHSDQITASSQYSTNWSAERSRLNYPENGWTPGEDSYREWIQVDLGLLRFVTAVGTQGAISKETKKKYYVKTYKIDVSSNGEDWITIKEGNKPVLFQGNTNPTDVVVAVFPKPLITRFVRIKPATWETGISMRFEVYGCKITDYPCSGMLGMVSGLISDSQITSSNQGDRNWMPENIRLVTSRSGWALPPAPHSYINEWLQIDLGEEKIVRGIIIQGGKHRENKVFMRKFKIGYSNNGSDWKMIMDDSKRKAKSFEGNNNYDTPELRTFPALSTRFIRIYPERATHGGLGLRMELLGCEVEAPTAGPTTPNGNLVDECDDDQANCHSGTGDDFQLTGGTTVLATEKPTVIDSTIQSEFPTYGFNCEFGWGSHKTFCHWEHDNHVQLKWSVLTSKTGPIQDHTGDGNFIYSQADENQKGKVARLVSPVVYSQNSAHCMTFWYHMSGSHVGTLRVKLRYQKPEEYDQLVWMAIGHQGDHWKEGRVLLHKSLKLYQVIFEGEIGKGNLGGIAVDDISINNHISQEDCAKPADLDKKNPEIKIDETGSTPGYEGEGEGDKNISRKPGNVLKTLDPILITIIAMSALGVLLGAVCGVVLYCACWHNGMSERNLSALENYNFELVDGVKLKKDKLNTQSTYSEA

Substance	binding (HA-tagged WT SLC44A2)	binding (GST-tagged SLC44A2)
His-tagged WT-NRP1 (from UniProt O14786 22-923) (receptor)	binds	
NRP1 (mouse) (from UniProt P97333 22-923) (receptor)		binds
neuropilin-1 (NRP1) (from UniProt O14786 22-923) (receptor)		binds

— article PMC11324303
